{"sequences": {"note": "Protein sequences, listed by entry. Tags and fused reporters are not part of them. Lines headed by an entry give the natural chain unless they say otherwise; changes in a name come on top.", "UniProt Q8IUX4": "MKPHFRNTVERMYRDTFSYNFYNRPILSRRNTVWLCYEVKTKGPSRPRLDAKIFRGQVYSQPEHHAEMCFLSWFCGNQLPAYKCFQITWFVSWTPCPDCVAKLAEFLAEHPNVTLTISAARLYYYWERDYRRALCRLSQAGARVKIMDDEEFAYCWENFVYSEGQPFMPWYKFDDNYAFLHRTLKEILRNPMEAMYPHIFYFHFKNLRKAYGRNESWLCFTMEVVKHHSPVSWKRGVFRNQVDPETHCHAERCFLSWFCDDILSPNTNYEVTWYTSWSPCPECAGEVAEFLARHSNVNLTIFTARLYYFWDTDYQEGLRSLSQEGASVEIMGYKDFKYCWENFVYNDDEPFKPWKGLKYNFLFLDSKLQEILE"}, "source": "PubChem BioAssay AID651814", "about": "(National Center for Advancing Translational Sciences (NCATS), 2012)", "note": "Out of some 2,100 compounds screened, about 590 (28%) were called active. This list was built around the results that the source calls inconclusive (neither active nor inactive); the mix of calls is not that of the screen. The call rests on the fitted dose curve; in most records, active means well fitted inhibition curve with a large enough effect; inconclusive means small, poorly fitted or top-dose-only effect; inactive means flat fitted curve, though single readings scatter. Where the call is inconclusive, the potency comes from a doubtful curve fit. Potency means the concentration at half of the fitted maximal effect.", "data": [{"target": "DNA dC->dU-editing enzyme APOBEC-3F (Homo sapiens) (UniProt Q8IUX4)", "assay": "qHTS for inhibitors of Vif-A3F interactions: Cherry picks; further: nearly all actives have a fitted effect of over 70% in size;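 on max response: % of control where 0% means no effect; active compounds raise eYFP fluorescence by blocking Vif-driven A3F loss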", "conditions": "HeLa A3F-eYFP + Vif (tagged APOBEC3F with the HIV-1 protein that degrades it), eYFP fluorescence, 24 h", "summary_of_the_method": "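HeLa cells stably expressing A3F-eYFP plus Vif, cultured overnight, then exposed to compounds at several concentrations for 24 h at 37 deg C. Reduced Vif-driven degradation read as rising eYFP fluorescence (488 nm ex/500-530 nm em) by laser-scanning cytometry; MG132 as positive control.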", "values": [{"smiles": "C/C(=N\\NC(=O)c1c(Cl)c(C)nn1C)c1ccc(NC(=O)C2CCC2)cc1", "Potency": "inconclusive: 1.25 µM [inhibitor, partial curve, poor fit]"}, {"smiles": "COc1ccc2nc(C)cc(SCC(=O)N/N=C/c3cccc4ccccc34)c2c1", "Potency": "active: 11.2 µM"}, {"smiles": "N=c1n(CC(=O)c2ccc([N+](=O)[O-])cc2)c2ccccc2n1Cc1ccccc1", "Potency": "active: 14.6 µM"}, {"smiles": "CCn1c2ccccc2c2c3ncc4cccn4c3ccc21", "Potency": "inconclusive: 20.6 µM [inhibitor, single point]"}, {"smiles": "CCCSc1nnc(N2C(=O)C(O)=C(C(=O)c3ccco3)C2c2ccccc2F)s1", "note": "(configuration not stated)", "max response": "inactive: -6.1%"}, {"smiles": "CCOc1cc(/C=C/C(=O)c2ccc(OC)c(CN3CCOCC3)c2)cc(Br)c1O", "Potency": "inconclusive: 23.1 µM [inhibitor, single point]"}, {"smiles": "CCNc1cc(N2CCN(C3CCCCC3)CC2)c2noc3c2c1C(=O)c1ccccc1-3", "Potency": "active: 18.4 µM"}, {"smiles": "COC(=O)c1ccc(NC(=O)CC2Nc3cc(C)c(C)cc3NC2=O)cc1", "note": "(configuration not stated)", "Potency": "active: 6.51 µM"}, {"smiles": "O=C1/C(=C/c2ccc(O)cc2)SC(=S)N1CC1CCCO1", "note": "(configuration not stated)", "max response": "inactive: 5.6%"}, {"smiles": "CCCCCCc1cc2cc(-c3nnc(-c4ccccc4)o3)c(=O)oc2cc1O", "Potency": "active: 3.96 µM"}, {"smiles": "O=C(Nc1ccc(N2CCN(C(=O)c3ccc(Cl)cc3)CC2)cc1)c1ccc([N+](=O)[O-])o1", "Potency": "inconclusive: 12.5 µM [inhibitor, partial curve]"}, {"smiles": "C=CCOC(=O)C1=C(C)Nc2nnnn2C1c1cccs1", "note": "(configuration not stated)", "max response": "inactive: -1.29%"}, {"smiles": "CCS(=O)(=O)N1N=C(c2cccc(NS(C)(=O)=O)c2)CC1c1ccc(C)cc1", "note": "(configuration not stated)", "Potency": "inconclusive: 20.6 µM [inhibitor, single point]"}, {"smiles": "Cc1ccc(CNC(=O)c2ccc3c(c2)NC(=O)C(CS(=O)(=O)Cc2cccc(C)c2)N3)cc1", "note": "(configuration not stated)", "Potency": "inconclusive: 18.4 µM [inhibitor, single point]"}, {"smiles": "CN(C)c1ccc(/C=N/NC(=O)c2cc(-c3ccc4c(c3)OCO4)n[nH]2)cc1", "Potency": "active: 17.7 µM"}, {"smiles": "Cc1cc(C)nc(NC(=S)Nc2cccc(Cl)c2Cl)c1", "max response": "inactive: -10.1%"}, {"smiles": "CCOC(=O)c1ccc(/C=C2/C=C(c3ccccc3)N(c3ccc(Cl)c(C(=O)O)c3)C2=O)cc1", "Potency": "active: 20.6 µM"}, {"smiles": "COc1ccc(OC)c(C2CC(=O)c3c([nH]c(C(=O)OCC4CCCO4)c3C)C2)c1", "note": "(configuration not stated)", "Potency": "inconclusive: 4.44 µM [inhibitor, full curve, poor fit]"}, {"smiles": "COc1cc(OC)c(OC)cc1/C=C1\\Oc2cc(OCC(=O)N3Cc4ccccc4C[C@H]3C(=O)O)ccc2C1=O", "Potency": "inconclusive: 2.31 µM [inhibitor, full curve, poor fit]"}, {"smiles": "CC(=O)Nc1cccc(-c2ccnc3c2CC(C(=O)Nc2cccc(N(C)C)c2)O3)c1", "note": "(configuration not stated)", "Potency": "inconclusive: 7.9 µM [inhibitor, partial curve]"}, {"smiles": "CCOc1ccc(-n2nnnc2SCC(=O)c2ccccc2)cc1", "Potency": "inconclusive: 14 µM [inhibitor, single point]"}, {"smiles": "COc1cc(C(=O)N/N=C(\\C)c2ccccn2)cc(OC)c1OC", "Potency": "inconclusive: 0.559 µM [inhibitor, full curve, poor fit]"}, {"smiles": "CC#Cc1cc2c(cc1O)CCC1C2CCC2(C)C(O)CCC12", "note": "(configuration not stated)", "Potency": "inconclusive: 3.53 µM [inhibitor, partial curve]"}, {"smiles": "C=CCNc1nc(-c2ccccc2)c(C(=O)OCC)cc1C#N", "Potency": "inconclusive: 4.98 µM [inhibitor, full curve]"}, {"smiles": "CCCCCS(=O)(=O)c1oc(-c2cccs2)nc1S(=O)(=O)c1ccc(C)cc1", "Potency": "inconclusive: 13 µM [inhibitor, partial curve]"}, {"smiles": "COc1cccc(C(=O)Nc2ccc(N3CCCC3)cc2)c1", "Potency": "inconclusive: 1.4 µM [inhibitor, full curve, poor fit]"}, {"smiles": "COc1cc(C2Oc3ccccc3C=C2[N+](=O)[O-])cc(OC)c1OC", "note": "(configuration not stated)", "Potency": "inconclusive: 14 µM [inhibitor, single point]"}, {"smiles": "CCOC(=O)c1ccc(Nc2nc3ccccc3nc2NS(=O)(=O)c2ccc(Cl)cc2)cc1", "max response": "inactive: -8.48%"}, {"smiles": "CCOc1cc([N+](=O)[O-])cc2c1C(=O)Nc1ccccc1O2", "max response": "inactive: -12%"}, {"smiles": "CC(=O)N1CCc2c(sc(NC(=O)CSc3ccccc3)c2-c2nc3ccccc3s2)C1", "Potency": "inconclusive: 25.9 µM [inhibitor, single point]"}, {"smiles": "N#Cc1cc2ccccc2nc1SCc1ccccn1", "Potency": "inconclusive: 29.1 µM [inhibitor, single point]"}, {"smiles": "O=C(Nc1ccc(N2CCOCC2)cc1)c1cccc2ccccc12", "max response": "inactive: -29.2%"}, {"smiles": "Cc1ccccc1NC(=O)c1ccc2c(c1)c(C)c(C)n2Cc1ccccc1", "Potency": "inconclusive: 3.26 µM [inhibitor, full curve]"}, {"smiles": "CCOC(=O)/C=c1/s/c(=C/c2ccc3cc(OC)ccc3c2)c(=O)n1CC(=O)NCC1CCCO1", "note": "(configuration not stated)", "Potency": "active: 18.4 µM"}, {"smiles": "N#C/C(=C/c1ccc(O)c(O)c1)c1nc2ccccc2[nH]1", "Potency": "inconclusive: 3.96 µM [inhibitor, single point]"}, {"smiles": "O=C(N/N=C\\C=C\\c1ccc([N+](=O)[O-])o1)c1cccs1", "Potency": "active: 12.5 µM"}, {"smiles": "CCOC(=O)/C=c1\\s/c(=C\\c2c(OC)ccc3ccccc23)c(=O)n1CC(=O)NCC1CCCO1", "note": "(configuration not stated)", "Potency": "active: 14.6 µM"}, {"smiles": "CCNc1ccc(Br)cc(C(=O)/C=C/c2ccc(Cl)cc2)c1=O", "Potency": "inconclusive: 25 µM [inhibitor, single point]"}, {"smiles": "CCn1c(SCC(=O)N/N=C/c2ccc(C)s2)nc2ccccc21", "max response": "inactive: -29.4%"}, {"smiles": "N#C/C(=C\\c1cccnc1)c1nc2ccccc2[nH]1", "Potency": "inconclusive: 14 µM [inhibitor, partial curve]"}, {"smiles": "CCOC(=O)N1CCN(C(=O)c2cc(-c3ccc(OCC)cc3)nc3ccccc23)CC1", "Potency": "inconclusive: 1.98 µM [inhibitor, single point]"}, {"smiles": "CCOC(=O)c1c(C)[nH]c(C(=O)N/N=C/c2cccc(OC)c2)c1C", "Potency": "inconclusive: 11.2 µM [inhibitor, partial curve]"}, {"smiles": "Clc1ccsc1-c1csc(-c2cccnc2)n1", "max response": "inactive: -27.5%"}, {"smiles": "Nc1[nH]c2cc([N+](=O)[O-])ccc2c1-c1ccccn1", "Potency": "inconclusive: 5.17 µM [inhibitor, full curve, poor fit]"}, {"smiles": "COc1cc(C(=O)OCC(=O)Nc2ccc(N3CCOCC3)cc2)ccc1OCC(C)C", "max response": "inactive: 1.41%"}, {"smiles": "CCCc1nc2c(C)cc(Br)cn2c1Cc1ccccc1", "max response": "inactive: -22.2%"}, {"smiles": "NC(=O)c1ccc(NC(=O)C#Cc2ccccc2)cc1", "max response": "inactive: -20.2%"}, {"smiles": "COc1ccc(NC(=O)C2(C)Cc3c(-c4cccc(C(N)=O)c4)ccnc3O2)cn1", "note": "(configuration not stated)", "Potency": "inconclusive: 11.2 µM [inhibitor, partial curve]"}, {"smiles": "CC1=NOC(=O)/C1=C\\c1ccc(-c2ccc(Br)cc2)o1", "Potency": "inconclusive: 14 µM [inhibitor, single point]"}, {"smiles": "Cc1noc(C)c1COc1ccc(C(=O)NNC(=O)c2ccccc2)cc1", "Potency": "inconclusive: 3.53 µM [inhibitor, full curve]"}, {"smiles": "Cc1cccc(N2CCN(C(=O)c3ccncc3)CC2)c1C", "Potency": "inconclusive: 14 µM [inhibitor, partial curve]"}, {"smiles": "COC(=O)C1C2CC3c4[nH]c5cc(OC)ccc5c4CCN3CC2CC(OC2CCCCO2)C1OC", "note": "(configuration not stated)", "max response": "inactive: -12.1%"}, {"smiles": "CSCC[C@H](NC(=O)[C@H](Cc1ccccc1)n1c(=O)[nH]c2ccccc2c1=O)C(=O)N1CCC[C@@H]1C(=O)O", "max response": "inactive: 1.14%"}, {"smiles": "COc1ccc(N/C=C/C(=O)c2sc(-c3ccccc3)nc2C)cc1", "max response": "inactive: -17.8%"}, {"smiles": "COc1cc(C2Nc3ccc4ncccc4c3C3=C2C(=O)CCC3)cc(OC)c1O", "note": "(configuration not stated)", "Potency": "inconclusive: 12.5 µM [inhibitor, single point]"}, {"smiles": "O=C(Cn1nc2c(cc1=O)CCCC2)NCc1ccc(Cl)cc1", "Potency": "inconclusive: 10.3 µM [inhibitor, partial curve]"}, {"smiles": "Cc1ccc2nc(-c3ccccn3)c(Nc3ccccc3C)n2c1", "max response": "inactive: -2.29%"}, {"smiles": "O=C(COC(=O)C12CC3CC(CC(Cl)(C3)C1)C2)N1CCCCC1", "max response": "inactive: 1.53%"}, {"smiles": "CCCN1C(=O)S/C(=C\\c2ccc(N3CCOCC3)o2)C1=O", "Potency": "active: 2.8 µM"}, {"smiles": "COc1ccccc1N1CCN(C(=O)c2ccc3ncsc3c2)CC1", "max response": "inactive: -21%"}, {"smiles": "C[n+]1ccc(/C=C/c2c[nH]c3ccccc23)cc1", "Potency": "active: 9.2 µM"}, {"smiles": "COc1cc(/C=C2\\SC(=S)N(NC(=O)c3ccccc3OC)C2=O)ccc1O", "max response": "inactive: -7.76%"}, {"smiles": "Oc1ccccc1-c1nc(NCc2ccccc2)c2ccccc2n1", "Potency": "inconclusive: 18.4 µM [inhibitor, single point]"}, {"smiles": "O=C1NC(c2cccc(Cl)c2)Nc2ccccc21", "note": "(configuration not stated)", "Potency": "inconclusive: 8.86 µM [inhibitor, partial curve]"}, {"smiles": "O=C(CCCCl)Oc1ccc2cc(-c3ccc4ccccc4n3)c(=O)oc2c1", "max response": "inactive: 3.21%"}, {"smiles": "CN(C)c1ccc(/C=C2\\SC(N3CCCCC3)=NC2=O)cc1", "Potency": "active: 16.4 µM"}, {"smiles": "CC[n+]1c(/C=C/N(C)c2ccccc2)oc2ccc(F)cc21", "Potency": "active: 11.2 µM"}, {"smiles": "N#CCc1nc2ccc(S(=O)(=O)N3CCOCC3)cc2s1", "Potency": "inconclusive: 19.8 µM [inhibitor, partial curve]"}, {"smiles": "CC(=O)Nc1cccc(-c2ccnc3c2CC(C(=O)Nc2ccc4c(c2)OCO4)O3)c1", "note": "(configuration not stated)", "Potency": "inconclusive: 1.98 µM [inhibitor, full curve, poor fit]"}, {"smiles": "OCC[n+]1ccc(/C=C/c2c[nH]c3ccccc23)cc1", "Potency": "active: 8.2 µM"}, {"smiles": "CNc1ccc(/C=C/c2ccnc3ccccc23)cc1", "Potency": "active: 14.6 µM"}, {"smiles": "CN(C)c1ccc(C=Cc2nccc3ccccc23)cc1", "Potency": "active: 11.2 µM"}]}]}
